For the assay, the target named is ADGB-ΔCCD (UniProt Q8N7X0). The experiment in a line: co-IP; lysates (1% triton buffer) of HEK293 cells (co-)transfected with the two constructs, IP by antibody to the protein or its tag (FLAG, V5, GFP), immunoblot; for GFP-Globin and V5-CaM also after heme depletion (heme-depleted FBS, 3 mM succinylacetone, 24 hr). On the technique in general: In western blotting, separated proteins are transferred to a membrane and probed.

The chains behind the UniProt entries cited, without tags or fusion partners. Where a name states a change or a piece, a line headed by the entry shows the natural chain unless it says otherwise.
UniProt Q8N7X0: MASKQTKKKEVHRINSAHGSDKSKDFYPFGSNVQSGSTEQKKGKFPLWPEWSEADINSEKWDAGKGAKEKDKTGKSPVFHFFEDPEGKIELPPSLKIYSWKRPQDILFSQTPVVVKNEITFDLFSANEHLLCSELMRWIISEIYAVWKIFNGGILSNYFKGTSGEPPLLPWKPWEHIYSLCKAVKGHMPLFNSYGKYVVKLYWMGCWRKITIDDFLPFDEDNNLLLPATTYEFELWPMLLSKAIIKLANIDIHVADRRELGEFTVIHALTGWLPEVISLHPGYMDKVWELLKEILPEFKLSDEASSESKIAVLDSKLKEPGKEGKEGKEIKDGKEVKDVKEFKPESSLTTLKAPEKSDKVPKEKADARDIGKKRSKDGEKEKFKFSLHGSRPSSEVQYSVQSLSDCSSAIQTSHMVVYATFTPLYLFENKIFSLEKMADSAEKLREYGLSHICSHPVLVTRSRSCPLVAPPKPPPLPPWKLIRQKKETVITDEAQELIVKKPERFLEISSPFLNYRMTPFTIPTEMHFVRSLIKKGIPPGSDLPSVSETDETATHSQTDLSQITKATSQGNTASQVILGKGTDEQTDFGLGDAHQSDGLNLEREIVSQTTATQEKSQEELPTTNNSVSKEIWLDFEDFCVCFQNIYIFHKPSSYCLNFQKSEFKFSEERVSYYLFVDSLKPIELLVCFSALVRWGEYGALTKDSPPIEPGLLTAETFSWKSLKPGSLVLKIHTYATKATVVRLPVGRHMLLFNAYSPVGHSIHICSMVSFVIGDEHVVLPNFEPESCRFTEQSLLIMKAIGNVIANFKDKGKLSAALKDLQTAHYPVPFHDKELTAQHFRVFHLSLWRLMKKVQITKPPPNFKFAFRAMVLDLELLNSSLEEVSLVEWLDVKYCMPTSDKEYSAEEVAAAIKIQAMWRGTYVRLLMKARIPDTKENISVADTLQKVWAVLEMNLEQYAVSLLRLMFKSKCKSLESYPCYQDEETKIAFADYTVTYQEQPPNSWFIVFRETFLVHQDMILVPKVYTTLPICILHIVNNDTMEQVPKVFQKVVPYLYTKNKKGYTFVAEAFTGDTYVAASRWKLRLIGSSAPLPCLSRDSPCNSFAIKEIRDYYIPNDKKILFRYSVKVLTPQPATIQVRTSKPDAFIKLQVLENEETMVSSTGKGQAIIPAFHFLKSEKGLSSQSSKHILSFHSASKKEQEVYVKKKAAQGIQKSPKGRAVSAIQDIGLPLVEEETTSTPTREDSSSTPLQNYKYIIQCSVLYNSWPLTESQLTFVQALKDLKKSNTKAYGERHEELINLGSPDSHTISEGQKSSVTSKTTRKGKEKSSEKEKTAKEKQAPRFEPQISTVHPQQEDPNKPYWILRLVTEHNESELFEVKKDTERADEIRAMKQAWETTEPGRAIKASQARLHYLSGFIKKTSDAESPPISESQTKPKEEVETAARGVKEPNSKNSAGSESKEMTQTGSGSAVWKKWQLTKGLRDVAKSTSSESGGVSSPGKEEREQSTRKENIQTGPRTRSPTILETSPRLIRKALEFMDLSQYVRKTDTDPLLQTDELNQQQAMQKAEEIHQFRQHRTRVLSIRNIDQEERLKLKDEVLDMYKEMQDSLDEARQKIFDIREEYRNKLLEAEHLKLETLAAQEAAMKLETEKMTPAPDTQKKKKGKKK
UniProt Q9P0V9: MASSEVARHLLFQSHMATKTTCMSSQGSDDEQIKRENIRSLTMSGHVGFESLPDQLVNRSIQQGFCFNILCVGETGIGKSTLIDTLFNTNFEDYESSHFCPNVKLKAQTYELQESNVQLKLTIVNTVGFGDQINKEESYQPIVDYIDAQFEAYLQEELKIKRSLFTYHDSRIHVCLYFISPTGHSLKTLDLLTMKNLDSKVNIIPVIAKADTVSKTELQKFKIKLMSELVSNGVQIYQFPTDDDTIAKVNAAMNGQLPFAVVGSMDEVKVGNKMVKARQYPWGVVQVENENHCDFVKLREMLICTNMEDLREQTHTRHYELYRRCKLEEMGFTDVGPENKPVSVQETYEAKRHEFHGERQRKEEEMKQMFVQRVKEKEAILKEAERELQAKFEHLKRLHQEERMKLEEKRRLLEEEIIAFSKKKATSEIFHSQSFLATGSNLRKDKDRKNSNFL

These are yes or no findings as the source states them, for the method shown. In cells and extracts the contact can be indirect. Binding calls can cover weak binding; strength is not graded here.

Turning to CCD mutant SEPT10 (from UniProt Q9P0V9), the binding result is given as “binds”.

These data come from publication PMC9249397.
